# Results reported in PubChem BioAssay AID624132 (Broad Institute, 2012).
# Out of some 1,600 compounds screened, about 1,500 (94%) were called active. So high a share suggests a set chosen from earlier hits. The list shows a part of the results, in another mix than the full data. Results with a measured potency or affinity are listed apart. Results filed as inconclusive are left out.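 Rule for the calls: active = signal drop with fitted half-maximal concentration at most twice the top valid dose for that sample; inconclusive = flat fit between 30 and 70% inhibition, or poor curve fit; inactive = the rest.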
# Assay: reduction of Shn3 3'UTR-driven luciferase in osteoblasts – cell-based, Clone20 osteoblasts, firefly luciferase, cherry-picked, dose response (AID 624132)
# Conditions: Clone20 osteoblast Shn3 3'UTR firefly luciferase, 24 h; at 35 µM (top of the series)
row,SMILES,"activity change, negative = inhibition"
1,CC(C)N1CCN(Cc2c[nH]c3ccccc23)CC1CCO (centres undefined),inactive: -2.35%
2,CCN1C[C@]2(COC)CC[C@H](OC)[C@@]34C1[C@]1(OCO[C@@]15C[C@H](OC)[C@H]1C[C@@H]3[C@@H]5[C@H]1OC)[C@@H](O)[C@H]24,inactive: 11.2%
3,CCOC(=O)C1C(=O)NC2(C)CC1c1cc(OC)ccc1O2 (centres undefined),inactive: 6.5%
4,COc1cccc2c1O[C@H]1C(=O)CC[C@H]3CN(C)CCC231 (some centres undefined),inactive: -5.63%
